In the test the test system is MX-1 breast xenograft, nude mice, tumor weight T/C. Kind of test: NCI In Vivo Anticancer Drug Screen. Data for tumor model Human Mammary Carcinoma MX-1 Xenograft (intrarenal inoculation) in NU/NU Swiss (nude) mice. The settings on record: T/C endpoint: mean tumor weight change, higher T/C = larger tumour; for T/C: evaluated on day 11. Put shortly:
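Tumor-bearing mice were treated with test compound alongside a vehicle-treated control group. Survival or tumor size was measured, and activity is expressed as the treated-group value divided by the control-group value.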

The mark [1] stands for this setting: dose: 300.0 mg/kg/injection, schedule: Q04DX003 (sc), vehicle: saline with Tween-80.

The values that follow come from PubChem BioAssay AID296 (DTP/NCI, 2004).

The list is a part of this screen's results and no random one: it is rich in T/C values a quarter to a half above the control, in often repeated tests (any T/C) and in doses without a T/C. Further doses and runs are listed elsewhere. T/C is the treated group as % of the vehicle group. Schedules are NCI's codes, taken here to give the interval after Q, in days (D) or hours (H), and the number of doses after X. Some T/C values are followed by the survivors on the day toxicity was checked, most often the fifth; where none is given, no animal had died by that day. Some entries hold several experiments; the results are listed from low to high. Brackets with × count equal records among those shown. Some entries give survivors of the animals treated and no T/C: the source files T/C as zero there, which appears to mark a toxic dose or a test without result, not a measured value. Counts of survivors are from the toxicity check (mostly the fifth day) where no day follows; animals may have died later.

On to `Ic1ncnc2c1ncn2C1CCCO1` (stereo not given), for which the T/C (dose: 100.0 mg/kg/injection, schedule: Q04DX003 (sc), vehicle: Klucel (hydroxypropylcellulose) (HPC)) was 141 % of control.

On to `Cc1cc2c(c3oc(C4(C)OC4C4OC4C)cc(=O)c13)C(=O)c1c(O)c(C3CC(C)(N(C)C)C(O)C(C)O3)cc(C3CC(N(C)C)C(O)C(C)O3)c1C2=O` (stereo not given), for which the survivor count is on record as 0 of 6 on day 11 (dose: 0.2 mg/kg/injection, schedule: Q04DX003 (sc), vehicle: saline) and 0 of 6 on day 11 (dose: 0.4 mg/kg/injection, schedule: Q04DX003 (sc), vehicle: saline).

For the compound `CCCCCCCCCCCCCCCC(=O)OCC1OC(n2ccc(N)nc2=O)C(O)C1O` (stereo not given), the T/C is, setting by setting: (dose: 75.0 mg/kg/injection, schedule: Q04DX003 (sc), vehicle: saline with Tween-80) 8 (2×), 70, 149 % of control; (dose: 150.0 mg/kg/injection, schedule: Q04DX003 (sc), vehicle: saline with Tween-80) 2, 6, 16 [4 of 6 alive on day 11], 55 % of control; under setting [1], 3 and 7 % of control [4 of 5 alive on day 11]. Also, the survivor count is, setting by setting: under setting [1], 0 of 6 on day 11; (dose: 600.0 mg/kg/injection, schedule: Q04DX003 (sc), vehicle: saline with Tween-80) 0 of 6 on day 11 and 1 of 6 on day 11.

`CC(=O)NC(C=O)OCC=O` (stereo not given): where the note is “dose: 800.0 mg/kg/injection, schedule: Q04DX003 (sc), vehicle: water”, the survivor count is reported as 0 of 6 on day 11.

Consider `C=C1C(=O)OC2CC(C)C3C4OC4C(O)C3(C)C(O)C12` (stereo not given), for which the T/C (dose: 50.0 mg/kg/injection, schedule: Q04DX003 (sc), vehicle: saline with Tween-80) is 129 % of control.

For `O=C1C=C[C@H](O)[C@@]2(CO)O[C@@H]12`, the survivor count is 1 of 5 on day 11 (dose: 12.5 mg/kg/injection, schedule: Q04DX003 (sc), vehicle: saline with Tween-80) and 0 of 6 on day 11 (dose: 25.0 mg/kg/injection, schedule: Q04DX003 (sc), vehicle: saline with Tween-80).

Take `CCCCCCCCCCCCCCCCCCOCC(COP(=O)([O-])OCC[N+](C)(C)C)OC` (stereo not given): where the note is “dose: 75.0 mg/kg/injection, schedule: Q04DX003 (sc), vehicle: saline”, the T/C is 140 % of control. For the same compound, the survivor count is recorded as 1 of 6 on day 11 (dose: 300.0 mg/kg/injection, schedule: Q04DX003 (sc), vehicle: saline) and 0 of 6 on day 11 (dose: 600.0 mg/kg/injection, schedule: Q04DX003 (sc), vehicle: saline).

As for `CC[N+](CC)(CC)CC`, the T/C (dose: 3.0 mg/kg/injection, schedule: Q01DX010 (sc), vehicle: saline with Tween-80) is 140 % of control. Also, the survivor count (dose: 24.0 mg/kg/injection, schedule: Q01DX010 (sc), vehicle: saline with Tween-80) was 0 of 3 on day 11.

With `CN(C)/N=N/c1nc[nH]c1C(N)=O`, the survivor count (dose: 800.0 mg/kg/injection, schedule: Q01DX010 (sc), vehicle: Klucel (hydroxypropylcellulose) (HPC)) is on record as 1 of 6 on day 11.

As for `O=NN(CCCl)C(=O)NCCCl`, the T/C (dose: 8.0 mg/kg/injection, schedule: Q01DX010 (sc), vehicle: saline) is 144 % of control. Moreover, the survivor count is on record as 0 of 3 on day 11 (dose: 32.0 mg/kg/injection, schedule: Q01DX010 (sc), vehicle: suspension in saline); 0 of 3 on day 11 (dose: 64.0 mg/kg/injection, schedule: Q01DX010 (sc), vehicle: saline); 0 of 3 on day 11 (dose: 64.0 mg/kg/injection, schedule: Q01DX010 (sc), vehicle: suspension in saline); 1 of 3 on day 11 (dose: 120.0 mg/kg/injection, schedule: Q04DX003 (sc), vehicle: suspension in saline).

On to `CNNCc1ccc(C(=O)NC(C)C)cc1`, for which the survivor count (dose: 400.0 mg/kg/injection, schedule: Q01DX010 (sc), vehicle: saline) was 1 of 3 on day 11; the survivor count (dose: 800.0 mg/kg/injection, schedule: Q01DX010 (sc), vehicle: saline) was 0 of 3 on day 11 and 1 of 3 on day 11.
